These results are taken from PMC11816668.

The chains behind the UniProt entries cited, without tags or fusion partners. Where a name states a change or a piece, a line headed by the entry shows the natural chain unless it says otherwise.
UniProt Q9NX00: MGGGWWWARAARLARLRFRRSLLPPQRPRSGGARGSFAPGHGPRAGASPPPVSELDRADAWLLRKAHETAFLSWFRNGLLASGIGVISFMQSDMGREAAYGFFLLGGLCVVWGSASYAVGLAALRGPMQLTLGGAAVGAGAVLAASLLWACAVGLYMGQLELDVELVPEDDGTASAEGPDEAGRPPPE

Results are given in words; binding and its absence hold for the method and conditions named. Binding seen in cells or lysates may run through a third protein. These calls come from enrichment with a bait or labelling near it, and not all partners need be listed.

For the test, the target named is Transmembrane protein 160 (TMEM160) (human (endogenous in A549)) (UniProt Q9NX00). Kind of test: affinity purification with mass spectrometry; endogenous TMEM160 immunoprecipitated from A549 lysate (NP40 lysis buffer with 0.5% CHAPS) with anti-TMEM160 antibody cross-linked (BS3) to protein A/G agarose beads, overnight at 4 °C; negative control without antibody; eluate analysed by LC-MS/MS (DIA).

For the molecule “importin KPNA6 (from UniProt O60684 1-536)”, the binding result was “binds”.

B1: nucleoporin NUP50 (protein, UniProt Q9UKX7 1-468)
chain: MAKRNAEKELTDRNWDQEDEAEEVGTFSMASEEVLKNRAIKKAKRRNVGFESDTGGAFKGFKGLVVPSGGGRFSGFGSGAGGKPLEGLSNGNNITSAPPFASAKAAADPKVAFGSLAANGPTTLVDKVSNPKTNGDSQQPSSSGLASSKACVGNAYHKQLAALNCSVRDWIVKHVNTNPLCDLTPIFKDYEKYLANIEQQHGNSGRNSESESNKVAAETQSPSLFGSTKLQQESTFLFHGNKTEDTPDKKMEVASEKKTDPSSLGATSASFNFGKKVDSSVLGSLSSVPLTGFSFSPGNSSLFGKDTTQSKPVSSPFPTKPLEGQAEGDSGECKGGDEEENDEPPKVVVTEVKEEDAFYSKKCKLFYKKDNEFKEKGIGTLHLKPTANQKTQLLVRADTNLGNILLNVLIPPNMPCTRTGKNNVLIVCVPNPPIDEKNATMPVTMLIRVKTSEDADELHKILLEKKDA
As for B1, the binding entry was “binds”.

B2: SRRM1 (protein, UniProt Q8IYB3 1-904)
chain: MDAGFFRGTSAEQDNRFSNKQKKLLKQLKFAECLEKKVDMSKVNLEVIKPWITKRVTEILGFEDDVVIEFIFNQLEVKNPDSKMMQINLTGFLNGKNAREFMGELWPLLLSAQENIAGIPSAFLELKKEEIKQRQIEQEKLASMKKQDEDKDKRDKEEKESSREKRERSRSPRRRKSRSPSPRRRSSPVRRERKRSHSRSPRHRTKSRSPSPAPEKKEKTPELPEPSVKVKEPSVQEATSTSDILKVPKPEPIPEPKEPSPEKNSKKEKEKEKTRPRSRSRSKSRSRTRSRSPSHTRPRRRHRSRSRSYSPRRRPSPRRRPSPRRRTPPRRMPPPPRHRRSRSPVRRRRRSSASLSGSSSSSSSSRSRSPPKKPPKRTSSPPRKTRRLSPSASPPRRRHRPSPPATPPPKTRHSPTPQQSNRTRKSRVSVSPGRTSGKVTKHKGTEKRESPSPAPKPRKVELSESEEDKGGKMAAADSVQQRRQYRRQNQQSSSDSGSSSSSEDERPKRSHVKNGEVGRRRRHSPSRSASPSPRKRQKETSPRGRRRRSPSPPPTRRRRSPSPAPPPRRRRTPTPPPRRRTPSPPPRRRSPSPRRYSPPIQRRYSPSPPPKRRTASPPPPPKRRASPSPPPKRRVSHSPPPKQRSSPVTKRRSPSLSSKHRKGSSPSRSTREARSPQPNKRHSPSPRPRAPQTSSSPPPVRRGASSSPQRRQSPSPSTRPIRRVSRTPEPKKIKKAASPSPQSVRRVSSSRSVSGSPEPAAKKPPAPPSPVQSQSPSTNWSPAVPVKKAKSPTPSPSPPRNSDQEGGGKKKKKKKDKKHKKDKKHKKHKKHKKEKAVAAAAAAAVTPAAIAAATTTLAQEEPVAAPEPKKETESEAEDNLDDLEKHLREKALRSMRKAQVSPQS
For the molecule B2, the binding entry was “binds”.
